For assay [1], the target named is sNASP, endogenous in primary bone marrow-derived macrophages (not stated (endogenous in primary BMDMs)) (UniProt Q99MD9). Kind of assay: co-IP; primary BMDMs, before LPS; IP with anti-NASP or anti-CYLD, IB with the indicated antibodies.
Assay [2] has the same target. As to the kind of experiment: co-IP; primary BMDMs stimulated with LPS (2 h); IP with anti-NASP or anti-CYLD, IB with the indicated antibodies.

Sequences of proteins named here, by UniProt entry; tags and fusion partners are left off. A change or cut given only in a name is not applied to a line headed by its entry. A line that says so, or that is headed by a name, gives the form on record, which may keep a tag or linker.
sNASP, endogenous in primary bone marrow-derived macrophages (not stated (endogenous in primary BMDMs)) (Q99MD9, form named): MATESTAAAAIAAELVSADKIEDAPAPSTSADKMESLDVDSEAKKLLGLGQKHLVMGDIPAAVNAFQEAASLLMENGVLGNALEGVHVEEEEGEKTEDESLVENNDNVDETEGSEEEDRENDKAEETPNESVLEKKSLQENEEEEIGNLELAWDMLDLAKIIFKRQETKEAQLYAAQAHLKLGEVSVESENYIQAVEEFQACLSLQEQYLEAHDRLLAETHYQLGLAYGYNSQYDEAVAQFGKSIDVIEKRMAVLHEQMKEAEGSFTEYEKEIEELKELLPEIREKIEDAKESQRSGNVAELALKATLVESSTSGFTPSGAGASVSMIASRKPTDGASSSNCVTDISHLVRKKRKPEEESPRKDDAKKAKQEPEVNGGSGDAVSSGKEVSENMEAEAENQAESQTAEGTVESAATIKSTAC

These are yes or no findings as the source states them, for the method shown. In cells and extracts the contact can be indirect. Some entries that bind do so weakly or less than the wild type.

B1: CYLD, endogenous in primary bone marrow-derived macrophages (enzyme, UniProt Q80TQ2 1-952)
chain: MSSGLWSQEKVTSPYWEERIFYLLLQECSVTDKQTQKLLKVPKGSIGQYIQDRSVGHSRVPSTKGKKNQIGLKILEQPHAVLFVDEKDVVEINEKFTELLLAITNCEERLSLFRNRLRLSKGLQVDVGSPVKVQLRSGEEKFPGVVRFRGPLLAERTVSGIFFGVELLEEGRGQGFTDGVYQGKQLFQCDEDCGVFVALDKLELIEDDDNGLESDFAGPGDTMQVEPPPLEINSRVSLKVGESTESGTVIFCDVLPGKESLGYFVGVDMDNPIGNWDGRFDGVQLCSFASVESTILLHINDIIPDSVTQERRPPKLAFMSRGVGDKGSSSHNKPKVTGSTSDPGSRNRSELFYTLNGSSVDSQQSKSKNPWYIDEVAEDPAKSLTEMSSDFGHSSPPPQPPSMNSLSSENRFHSLPFSLTKMPNTNGSMAHSPLSLSVQSVMGELNSTPVQESPPLPISSGNAHGLEVGSLAEVKENPPFYGVIRWIGQPPGLSDVLAGLELEDECAGCTDGTFRGTRYFTCALKKALFVKLKSCRPDSRFASLQPVSNQIERCNSLAFGGYLSEVVEENTPPKMEKEGLEIMIGKKKGIQGHYNSCYLDSTLFCLFAFSSALDTVLLRPKEKNDIEYYSETQELLRTEIVNPLRIYGYVCATKIMKLRKILEKVEAASGFTSEEKDPEEFLNILFHDILRVEPLLKIRSAGQKVQDCNFYQIFMEKNEKVGVPTIQQLLEWSFINSNLKFAEAPSCLIIQMPRFGKDFKLFKKIFPSLELNITDLLEDTPRQCRICGGLAMYECRECYDDPDISAGKIKQFCKTCSTQVHLHPRRLNHSYHPVSLPKDLPDWDWRHGCIPCQKMELFAVLCIETSHYVAFVKYGKDDSAWLFFDSMADRDGGQNGFNIPQVTPCPEVGEYLKMSLEDLHSLDSRRIQGCARRLLCDAYMCMYQSPTMSLYK
As for B1, the binding result was “binds” in assay [1] and “no binding (condition: 2 h after LPS stimulation)” in assay [2].

The values above are taken from paper PMC11923351.
